Reference: publication PMC11551748
These are yes or no findings as the source states them, for the method shown. For part of these data: Binding seen in cells or lysates may run through a third protein. Some binding calls cover weakened binding; strength is not graded here. For part of these data: Sequences can lack the tags named with a protein. Values belong to the substance of their own block, whether it stands above or below them.

Protein sequences, listed by entry. Tags and fused reporters are not part of them.
UniProt O14980: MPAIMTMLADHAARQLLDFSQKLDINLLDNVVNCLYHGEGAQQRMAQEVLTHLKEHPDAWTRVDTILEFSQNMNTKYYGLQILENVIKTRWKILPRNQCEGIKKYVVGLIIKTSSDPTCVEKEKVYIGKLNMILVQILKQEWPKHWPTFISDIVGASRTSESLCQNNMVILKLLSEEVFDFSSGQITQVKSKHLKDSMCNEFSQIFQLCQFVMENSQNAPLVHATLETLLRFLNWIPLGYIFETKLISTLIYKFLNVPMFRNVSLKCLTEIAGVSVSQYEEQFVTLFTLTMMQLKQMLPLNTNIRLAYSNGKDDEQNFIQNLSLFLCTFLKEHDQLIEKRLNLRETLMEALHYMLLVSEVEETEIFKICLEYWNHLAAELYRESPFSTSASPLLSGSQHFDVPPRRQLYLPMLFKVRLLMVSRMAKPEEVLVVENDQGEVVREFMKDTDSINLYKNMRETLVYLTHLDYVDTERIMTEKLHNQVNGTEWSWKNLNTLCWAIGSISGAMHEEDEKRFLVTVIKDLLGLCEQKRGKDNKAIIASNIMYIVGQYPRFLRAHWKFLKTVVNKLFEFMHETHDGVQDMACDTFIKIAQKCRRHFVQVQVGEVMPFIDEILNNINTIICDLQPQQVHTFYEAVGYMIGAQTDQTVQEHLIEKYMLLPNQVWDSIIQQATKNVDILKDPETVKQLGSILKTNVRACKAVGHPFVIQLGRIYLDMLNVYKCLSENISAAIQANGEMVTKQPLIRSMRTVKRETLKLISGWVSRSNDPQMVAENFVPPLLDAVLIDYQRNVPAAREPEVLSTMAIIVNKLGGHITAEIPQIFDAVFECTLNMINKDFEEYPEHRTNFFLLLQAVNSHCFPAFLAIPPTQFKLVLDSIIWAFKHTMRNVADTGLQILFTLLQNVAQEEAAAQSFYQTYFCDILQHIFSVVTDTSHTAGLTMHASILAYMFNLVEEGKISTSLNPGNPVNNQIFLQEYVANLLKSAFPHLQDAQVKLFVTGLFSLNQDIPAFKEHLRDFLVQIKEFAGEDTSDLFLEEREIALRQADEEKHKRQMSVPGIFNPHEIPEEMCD
UniProt Q8ND56: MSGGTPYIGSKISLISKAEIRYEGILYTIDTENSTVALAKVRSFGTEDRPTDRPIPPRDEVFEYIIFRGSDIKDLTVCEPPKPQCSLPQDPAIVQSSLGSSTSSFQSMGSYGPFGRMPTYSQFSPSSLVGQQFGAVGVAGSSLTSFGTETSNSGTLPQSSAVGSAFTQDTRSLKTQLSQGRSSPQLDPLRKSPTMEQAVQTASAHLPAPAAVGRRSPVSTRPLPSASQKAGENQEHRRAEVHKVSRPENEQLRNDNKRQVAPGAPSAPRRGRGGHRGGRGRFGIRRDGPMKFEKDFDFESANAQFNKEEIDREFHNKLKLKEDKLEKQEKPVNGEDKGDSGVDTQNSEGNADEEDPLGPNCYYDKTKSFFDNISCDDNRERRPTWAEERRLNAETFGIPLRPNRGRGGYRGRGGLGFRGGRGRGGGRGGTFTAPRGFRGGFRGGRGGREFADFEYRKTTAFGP
UniProt Q12888: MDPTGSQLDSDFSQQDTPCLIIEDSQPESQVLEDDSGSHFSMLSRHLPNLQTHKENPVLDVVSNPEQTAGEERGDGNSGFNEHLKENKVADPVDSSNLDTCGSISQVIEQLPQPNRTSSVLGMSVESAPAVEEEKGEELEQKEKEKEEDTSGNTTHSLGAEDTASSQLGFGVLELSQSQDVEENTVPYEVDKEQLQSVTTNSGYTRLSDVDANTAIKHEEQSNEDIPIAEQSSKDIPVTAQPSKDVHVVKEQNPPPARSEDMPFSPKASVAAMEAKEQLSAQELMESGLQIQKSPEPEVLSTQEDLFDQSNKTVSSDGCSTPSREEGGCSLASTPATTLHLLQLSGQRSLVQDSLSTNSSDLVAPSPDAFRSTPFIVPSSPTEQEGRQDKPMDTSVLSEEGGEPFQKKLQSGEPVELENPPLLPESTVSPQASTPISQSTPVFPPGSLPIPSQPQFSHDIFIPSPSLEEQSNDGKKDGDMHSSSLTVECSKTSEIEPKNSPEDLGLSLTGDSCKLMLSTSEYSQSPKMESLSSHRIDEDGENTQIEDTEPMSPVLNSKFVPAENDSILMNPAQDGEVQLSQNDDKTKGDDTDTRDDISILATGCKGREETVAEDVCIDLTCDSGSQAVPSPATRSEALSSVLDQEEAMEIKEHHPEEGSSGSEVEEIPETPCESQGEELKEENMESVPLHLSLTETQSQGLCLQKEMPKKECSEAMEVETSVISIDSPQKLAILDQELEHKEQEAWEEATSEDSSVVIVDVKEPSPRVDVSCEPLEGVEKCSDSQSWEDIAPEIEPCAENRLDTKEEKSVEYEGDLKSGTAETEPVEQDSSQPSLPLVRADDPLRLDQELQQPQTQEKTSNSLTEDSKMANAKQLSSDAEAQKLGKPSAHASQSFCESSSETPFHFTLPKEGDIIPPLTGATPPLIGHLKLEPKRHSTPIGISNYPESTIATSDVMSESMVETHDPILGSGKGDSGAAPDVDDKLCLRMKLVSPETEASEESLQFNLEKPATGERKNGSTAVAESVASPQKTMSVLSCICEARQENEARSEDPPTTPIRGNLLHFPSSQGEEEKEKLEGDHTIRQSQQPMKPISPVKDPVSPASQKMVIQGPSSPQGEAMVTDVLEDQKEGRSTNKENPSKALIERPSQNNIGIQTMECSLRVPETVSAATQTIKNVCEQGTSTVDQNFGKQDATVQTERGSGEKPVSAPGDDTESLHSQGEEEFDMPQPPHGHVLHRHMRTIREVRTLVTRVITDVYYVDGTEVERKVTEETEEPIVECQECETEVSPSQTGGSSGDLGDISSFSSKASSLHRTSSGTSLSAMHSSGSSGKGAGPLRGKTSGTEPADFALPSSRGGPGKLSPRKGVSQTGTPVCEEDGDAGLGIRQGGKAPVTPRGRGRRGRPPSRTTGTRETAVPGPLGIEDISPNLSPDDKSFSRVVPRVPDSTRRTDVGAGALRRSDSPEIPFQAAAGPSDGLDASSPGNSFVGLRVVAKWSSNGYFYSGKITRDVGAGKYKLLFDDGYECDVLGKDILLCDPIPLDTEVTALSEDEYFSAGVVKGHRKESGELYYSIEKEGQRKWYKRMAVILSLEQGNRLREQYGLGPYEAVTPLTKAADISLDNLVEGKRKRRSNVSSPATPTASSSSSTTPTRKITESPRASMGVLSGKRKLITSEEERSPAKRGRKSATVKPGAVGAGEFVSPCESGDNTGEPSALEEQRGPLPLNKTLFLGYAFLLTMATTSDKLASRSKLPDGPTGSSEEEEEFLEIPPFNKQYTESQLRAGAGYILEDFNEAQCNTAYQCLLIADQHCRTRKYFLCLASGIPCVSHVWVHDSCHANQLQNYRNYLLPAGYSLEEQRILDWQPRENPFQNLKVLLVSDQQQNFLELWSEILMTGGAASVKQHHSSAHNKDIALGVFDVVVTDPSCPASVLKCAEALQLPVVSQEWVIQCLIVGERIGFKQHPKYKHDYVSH

What was measured:
[1] = target: TIRR-GFP WT (lentivirus-integrated, U2OS) (UniProt Q9BRJ7); experiment: proximity ligation; TIRR/XPO1 PLA in stable U2OS cell lines (WT TIRR-GFP or GFP alone) in a TIRR knock-down background
[2] = target: Tudor interacting repair regulator (TIRR), endogenous (human (endogenous in HeLa and U2OS)) (UniProt Q9BRJ7); experiment: proximity ligation; PLA with TIRR and XPO1 antibodies in cells with or without ETO or IR; single antibodies as negative control
[3] = target: TIRR-GFP (doxycycline-induced overexpression, Flp-IN HeLa cells) (UniProt Q9BRJ7); experiment: co-IP; GFP-Trap magnetic beads on lysates of cells with doxycycline-induced TIRR-GFP or GFP only; damage and non-damage conditions; blot for XPO1
[4] = target: T1, TIRR-GFP 53BP1 binding mutant (K10E) (UniProt Q9BRJ7); experiment: co-IP; GFP-Trap magnetic beads on lysates of lentivirus-integrated stable U2OS cell lines (GFP, TIRR-GFP WT and mutants); WT with and without ETO, mutants with ETO; blots for XPO1 and 53BP1
T1 sequence: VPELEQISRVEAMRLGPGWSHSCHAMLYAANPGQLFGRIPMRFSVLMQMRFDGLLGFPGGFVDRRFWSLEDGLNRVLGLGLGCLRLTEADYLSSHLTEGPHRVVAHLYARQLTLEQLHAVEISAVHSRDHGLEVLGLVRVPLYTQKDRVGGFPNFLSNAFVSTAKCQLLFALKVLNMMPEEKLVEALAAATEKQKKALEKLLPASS

[5] = target: TIRR-GFP WT (lentivirus-integrated, U2OS) (UniProt Q9BRJ7); experiment: as above
[6] = target: Tudor interacting repair regulator (TIRR), endogenous (human (endogenous in HeLa and U2OS)) (UniProt Q9BRJ7); experiment: proximity ligation; PLA with antibodies against TIRR and LSM14A in HeLa and U2OS cells with or without ETO, and in HeLa cells with IR; single antibodies as negative controls
[7] = target: Flag-hCRM1 (FLAG-XPO1) (human) (UniProt O14980); experiment: co-IP; Anti-FLAG M2 magnetic beads on lysates of U2OS cells transiently transfected with XPO1-FLAG or mScarlet-FLAG; non-damage and damage conditions; blot for TIRR
[8] = target: recombinant His-tagged TIRR (Tudor interacting repair regulator) (UniProt Q9BRJ7); experiment: pull-down; 1.5 ug His-TIRR on Ni-NTA magnetic agarose beads, 6 ug GST-tagged XPO1 added for 1 h at 4°C; 50 mM Tris pH 7.4, 150 mM NaCl, 5 mM MgCl2, 10% glycerol; eluted with 500 mM imidazole, western blot for GST and His; both purified

Substance: LSM14A, endogenous (from UniProt Q8ND56 1-463)
- binding [6]: binds

Substance: Tudor interacting repair regulator (TIRR), endogenous (from UniProt Q9BRJ7 1-211)
- binding [7]: binds

Substance: recombinant GST-tagged XPO1 (ab131897, Abcam) (from UniProt O14980 1-1071)
- binding [8]: binds

More lines, main results first:

- binding [1]: binds
- binding [2]: binds
- binding [4]: binds
- binding [5]: binds
Substance: Exportin-1 (XPO1), endogenous (from UniProt O14980 1-1071)
- binding [3]: binds

- binding [5]: binds
Substance: p53 binding protein 1 (53BP1), endogenous (from UniProt Q12888 1-1972)
